This note sets out measurements from patent publication US20110212890A1 (Takeda Pharmaceutical Company Limited, priority 2008, published 2011).

The data set in a line: general procedure: Fmoc solid-phase peptide synthesis; Rink amide MBHA resin; DCC/HOBt; DIPCDI/HOAt. The settings on record: whole synthesis, scale 0.06 mmol, TFA salt.

Regarding “H-Acp-D-Tyr-D-Trp-Asn-Thr-Phe-AzaGly-Leu-Arg(Me)-Trp-NH2”, the isolated mass came out at 7.1 mg.
